Results from paper PMC10815436, “Toward New AQP4 Inhibitors: ORI-TRN-002” (International Journal of Molecular Sciences, 2024).

Tested on: human alpha acid glycoprotein
Assay: Alpha acid glycoprotein affinity (BRAINstorm affinity chromatography)
Assay type: binding

Q: `O=C(Nc1cc(C(F)(F)F)cc(C(F)(F)F)c1)c1cc(Cl)ccc1O` [AER-270, N-[3,5-bis (trifluoromethyl)phenyl]-5-chloro-2-hydroxybenzamide] was tested. Which “logKaAGP (log10 of human alpha acid glycoprotein affinity constant)” value (from here on “logKaAGP”) did it give?
A: 6.94

Q: Which “logKaAGP” value does the source give for `O=c1[nH]c(-c2cccnc2)nc2[nH]ncc12` [ORI-TRN-002, 6-(pyridin-3-yl)-1H-pyrazolo[3,4-d]pyrimidin-4(5H)-one] here?
A: 1.88

Q: `O=C(Nc1nncs1)c1cccnc1` [TGN-020, 2-(nicotinamide)-1,3,4-thiadiazole] was tested. Which “logKaAGP” value did it give?
A: 1.18
